Experimental data published in patent US8143072B2, “System for detecting nanoparticles using modulated surface plasmon resonance” (The University of Toledo, priority 2006, dated 2012).

What was measured:
[1] = Loading of rhodamine B derivatives on MNPs by silanization, UV-vis at 554 nm (indirect, subtraction); conditions: on MNPs (0.37 mg), ethanol, 24 hrs
[2] = Loading of glucosamine 14 on MNPs, quantified by additional rhodamine B 2 immobilized

Row | Substance | Maximum Loading Level [1] [mol/g] | amount added at which additional rhodamine B 2 immobilized became zero ([2]; MNPs (0.37 mg), FIG. 23) [µmol] | maximum loading level on MNPs ([2]; assuming 60% of 14 added was immobilized) [mol/g]
1 | Rhodamine B ACA APTES Conjugate [Rhodamine B derivative 2] | 0.0015 | – | –
2 | Rhodamine B PentaACA APTES Conjugate [Rhodamine B derivative 4] | 0.00111 | – | –
3 | Rhodamine B TriACA APTES Conjugate [Rhodamine B derivative 3] | 0.00153 | – | –
4 | p-[4-(N-(3-Triethoxysilylpropylamino)succinamido)]-benzyl 4,6-O-benzylidene-2-deoxy-2-phthalimido-β-D-glucopyranoside [glucosamine 14] | – | 1.0 | 0.0016
